Assay results as given in patent US8071558B2, “Application of D-psicose to suppression of abnormal circadian increase in blood glucose level” (Rare Sugar Production Technical Research Laboratories, LLC., priority 2005, dated 2011).

System: Male Wistar rats
Assay: Influence of D-psicose diet on liver weight and composition (16-week feeding)
Type: in vivo, rat
Conditions: 16 weeks
Experimental: Twenty-four male Wistar rats of age 3 weeks were fed ad libitum under a condition that the bright cycle was at a temperature of 25° C. and a humidity of 50 to 70% from 8:00 am to 20:00 pm, for preliminary feeding for one week. Subsequently, the rats were divided into 4 groups, each group consisting of 6 rats. The groups were defined a high fat/D-psicose diet (HF-P) group; a high fat/cellulose diet (HF-C) group; a low fat/D-psicose diet (LF-P) group; and a low fat/cellulose diet (LF-C) group. 20% beef fat and 5% soybean oil were used to prepare the high fat diets. 5% soybean oil was used to prepare the low fat diets. 5% D-psicose or cellulose was added to the individual diets. These rats were fed these experimental diets and water ad libitum for 16 weeks. On the last day of the experiment, the rats were decapitated and sacrificed to death, from which liver, flounder muscle and intraperitoneal fat tissues were resected. Glycogen, neutral fat and protein were assayed in the liver, while glycogen content was assayed in the flounder muscle. [table]

O=C(CO)[C@H](O)[C@H](O)[C@H](O)CO [D-psicose]
Body weight increment (high fat diet + 5% D-psicose): 239 ± 10 g | Energy efficiency (high fat diet + 5% D-psicose): 44 ± 1 mg/kcal | Energy intake (high fat diet + 5% D-psicose): 49 ± 2 kcal/day | Final body weight (high fat diet + 5% D-psicose): 321 ± 10 g | Body weight increment (low fat diet + 5% D-psicose): 244 ± 6 g | Energy efficiency (low fat diet + 5% D-psicose): 45 ± 1 mg/kcal | Energy intake (low fat diet + 5% D-psicose): 48 ± 1 kcal/day | Final body weight (low fat diet + 5% D-psicose): 326 ± 6 g
